Reference: PubChem BioAssay AID1439 (NMMLSC, 2008)
“And” between values parts separate entries of the source, which are not always exact repeats. Equal values may be shown once. The whole screen tested about 220,000 compounds, of which about 770 (0.35%) were called active. The shares of active, inactive and inconclusive entries below differ from those in the screen. Rule as the data show it: active = binding response below about 49% or above about 150%; inconclusive = no clear call, values can overlap the other calls; inactive = in between. Some compounds were tested as several samples or in several runs, with calls that do not always agree.

By UniProt entry, the sequences of proteins in these tests, tags left out.
UniProt P09471, whole entry, looked up: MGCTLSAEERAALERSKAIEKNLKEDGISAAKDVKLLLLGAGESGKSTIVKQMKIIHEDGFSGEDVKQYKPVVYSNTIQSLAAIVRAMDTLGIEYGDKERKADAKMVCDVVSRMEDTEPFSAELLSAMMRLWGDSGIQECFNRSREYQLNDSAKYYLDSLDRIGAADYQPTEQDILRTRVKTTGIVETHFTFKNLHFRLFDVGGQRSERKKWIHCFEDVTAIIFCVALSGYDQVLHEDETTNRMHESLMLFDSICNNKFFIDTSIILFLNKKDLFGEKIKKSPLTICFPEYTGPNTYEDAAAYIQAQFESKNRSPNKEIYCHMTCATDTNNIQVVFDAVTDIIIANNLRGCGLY

Molecular target: Guanine nucleotide-binding protein G(o) subunit alpha (Homo sapiens) (UniProt P09471)
Assay: RGS7-Galphao binding modulators, primary screen, biochemical, multiplexed bead flow cytometry (AID 1439);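 also: fluorescent Galphao held in activated GDP-AlF4 state binding bead-coupled RGS7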
Settings: at 10 µM, actives lie on both sides

| SMILES | binding response (% of control) |
| --- | --- |
| O=C(CSc1nnc(NC2CCCCC2)s1)NN1C(=O)NC2(CCCCC2)C1=O | inactive: 98.2% |
| CCOC(=O)c1cc(C#N)c(SCC(=O)OC)[nH]c1=O | inconclusive: 266% |
| COc1c(F)c(F)c(C(=O)Nc2ccc(N3CCN(Cc4ccccc4)CC3)cc2)c(F)c1F | inactive: 128% |
| Cc1cccc(OCC(=O)NCC(=O)N/N=C/c2ccc(O)cc2O)c1 | inconclusive: 80.4% |
| CCOP(=O)(Cc1ccc(C(C)(C)CC(C)=O)o1)OCC | inconclusive: 111% |
| O=C(CC(Nc1ccccc1)c1ccccc1)C1CC1 (configuration not stated) | inconclusive: -5.07% |
| O=C(COc1ccc(Cl)cc1Cl)Nc1ccc(CN2CCCCC2)cc1 | inconclusive: 118% |
| COc1cc(NC(=O)CSc2nc(C)cc(C)n2)cc(OC)c1OC | inconclusive: 90.1% |
| COc1ccc(Cn2c(=O)[nH]c3cc(C(=O)NCCCOC(C)C)ccc3c2=O)cc1 | inactive: 99% |
| Cn1c2ccccc2c(=O)c2c(=O)n(Cc3ccccc3)c(-c3ccc(F)cc3)nc21 | inconclusive: 88.2% |
| O=C1CSC(c2cccnc2)N1Cc1ccc(Cl)cc1Cl (configuration not stated) | inconclusive: 170% |
| CC(C)(C)NS(=O)(=O)c1ccc(NS(=O)(=O)c2ccc(F)cc2)cc1 | inactive: 98.9% |
| CCCCCCCC(=O)NNC(=O)CC(=O)Nc1ccccc1C(=O)O | inactive: 103% |
| Cc1c(C#N)c(NC(=O)CCl)n(Cc2cccs2)c1C | inconclusive: 105% |
| COc1ccc(NC(=O)CCn2cccc2)c(OC)c1 | inconclusive: 116% |
| CN(CC(=O)N1CCN(c2cccc(Cl)c2)CC1)S(=O)(=O)c1cccs1 | inactive: 144% |
| O=C(Nc1ccc2c(c1)CCC2)c1cc(=O)[nH]c2ccccc12 | inconclusive: 51.4% |
| C=CCNC(=S)N/N=C/c1ccc(C(F)(F)F)cc1 | inconclusive: 116% |
| Nc1c(C(=O)Nc2ccccc2)sc2nc(-c3cccnc3)ccc12 | inconclusive: 111% |
| N=C1/C(=C\c2ccc(OCc3ccccc3)cc2)C(=O)N=C2SC(N3CCCC3)=NN12 | inactive: 84.8% |
| CCc1cc(C(=O)O)c(NC(=O)/C=C/c2ccc(OC)c(OC)c2)s1 | inconclusive: 89.7% |
| CCOCCCNCC(=O)Nc1ccc(S(=O)(=O)NC(C)CC)cc1 (configuration not stated) | inactive: 96.6% |

| SMILES | binding response (% of control) |
| --- | --- |
| O=C(NNc1ccc(-c2csnn2)cc1)c1ccccc1C(F)(F)F | inconclusive: 102% |
| O=C(N/N=C/c1cccc(O)c1)c1ccc(COc2cccc3cccnc23)cc1 | inconclusive: 79.5% |
| CCOc1ccc(NC(=O)Nc2ccc3c(c2)nc(C)n3C)cc1 | inconclusive: 109% |
| O=C(CSc1nnc2n1CCCN2)c1ccc(Cl)cc1 | active: -278% |
| CC(=O)N1CCN(CC(=O)Nc2cc(S(=O)(=O)N3CCOCC3)ccc2C)CC1 | inconclusive: 104% |
| O=C(O)C1=C[C@H](c2ccc(F)cc2)C[C@H](OCc2ccc(CO)cc2)O1 | inconclusive: 111% |
| COc1cc(C)ccc1OCCON1C(=O)CCC1=O | inconclusive: 106% |
| CC(C)[C@H](NC(=O)[C@@H]1Cc2ccccc2CN1C(=O)OC(C)(C)C)C(=O)NCC1CCC(C(=O)O)CC1 (some centres not stated) | inconclusive: 143% |
| O=S(=O)(NCc1ccccc1)c1cccc2nsnc12 | inconclusive: 98.4% |
| CCOc1ccc(N2CC(C(=O)Nc3c(C)n(C)n(-c4ccccc4)c3=O)CC2=O)cc1 (configuration not stated) | inactive: 102% |
| CN(c1ccccc1)S(=O)(=O)c1cccc(C(=O)Nc2ccc3c(c2)CCC3)c1 | inactive: 90.9% |
| CCOc1ccc(C(=O)N(c2ccccn2)C2CCCCC2)cc1 | inconclusive: 113% |
| O=C(CN1CCN(C(c2ccccc2)c2ccccc2)CC1)Nc1ccc(N2CCOCC2)cc1 | inconclusive: 99.8% |
| Cc1c(Cl)cccc1NC(=S)N1CCC(N(C)CC2CCCO2)CC1 (configuration not stated) | inactive: 111% |
| CCN(C(=O)CSc1cc(C)c2cccc(C)c2n1)C1CCS(=O)(=O)C1 (configuration not stated) | inconclusive: 99% |
| Cc1cc(/C=C(\C#N)C(=O)O)c(C)n1CCC(C)C | inconclusive: 107% |
| O=C(CSc1nc(-c2ccc(F)cc2)cs1)NCCN1C(=O)CSC1=O | inconclusive: 92.2% |
| CN1CCN(C(=O)CSc2nc3ccc(NC(=O)c4ccccc4F)cc3s2)CC1 | inconclusive: 89.4% |
| CC(NC(=O)C1CCN(S(=O)(=O)N2CCC3(CC2)OCCO3)CC1)c1ccccc1 (configuration not stated) | inconclusive: 89.9% |
| Cc1cccc(C)c1N1C(=O)[C@@H]2C(c3ccccc3Cl)=NO[C@@H]2C1=O | inconclusive: 32.4% |
| O=C1CSC(c2cccnc2)N1Cc1ccc(Cl)c(Cl)c1 (configuration not stated) | inconclusive: 116% |
| CC(C)S(=O)(=O)c1csc(C(=O)NN)c1-n1cccc1 | inconclusive: 123% |

Fetched one by one from the list above, two records:

| SMILES | binding response (% of control) |
| --- | --- |
| Cc1c(Cl)cccc1NC(=S)N1CCC(N(C)CC2CCCO2)CC1 (configuration not stated) | inactive: 111% |
| O=C(NNc1ccc(-c2csnn2)cc1)c1ccccc1C(F)(F)F | inconclusive: 102% |

Continued:

| SMILES | binding response (% of control) |
| --- | --- |
| O=C(CNCc1cccc2ccccc12)Nc1ccccc1[N+](=O)[O-] | inconclusive: 101% |
| CCOc1ccc2nc(COC(=O)c3ccncc3)c(C(=O)c3ccccc3)[n+]([O-])c2c1 | inconclusive: 83.5% |
| CCN(C(=O)c1cnc(NC(C)C)cc1C(F)(F)F)c1ccc(Cl)cc1 | inconclusive: 59.1% |
| O=C(CN1C(=O)S/C(=C\C=C\c2ccccc2)C1=O)N1CCOCC1 | inconclusive: 107% |
| O=C(O)CNC(=O)/C=C/c1ccc(Cl)cc1Cl | inconclusive: 99.1% |
| Cc1cc(C(=O)CSc2nnc(-c3cccnc3)n2-c2ccccc2F)c(C)n1C | active: 4.95% and inactive: 93.9% |
| Cc1nc(C(=O)Nc2ccc(Cl)cc2)sc1C1(C)CC(c2ccccc2)=NO1 (configuration not stated) | inconclusive: 108% |
| Cc1nc(SCC(=O)O)n[nH]1 | inconclusive: 71.7% |
| Brc1ccc(/C=N/n2cnnc2)s1 | inconclusive: 112% |
| CCOC(=O)C1(C)C=C(Nc2ccc(NC(C)=O)cc2)C(=O)N1c1ccc(NC(C)=O)cc1 (configuration not stated) | inconclusive: 353% |
| CCOC(=O)C(NC(C)=O)C(=O)Nc1c(C)cccc1C (configuration not stated) | inconclusive: 80.2% |
| N#C/C(=C(/O)c1ccc([N+](=O)[O-])s1)c1nc2ccccc2[nH]1 | inconclusive: 211% |
| Cn1c(=O)c2c(ncn2CC(=O)N/N=C/C=C/c2ccccc2[N+](=O)[O-])n(C)c1=O | inconclusive: 96.3% |
| CCn1c2ccccc2c2cc(NC(=O)CNC)ccc21 | inconclusive: 95.7% |
| CCN(CC(=O)Nc1ccc(C(C)=O)cc1)CC(=O)Nc1cccc(OC)c1 | inactive: 103% |
| CC(C)C[C@H](NC(=O)c1nc[nH]c1C(=O)N1CCC(C)CC1)C(=O)OCc1ccccc1 | inconclusive: 110% |
| COC/C=C/C1=CC2=CC(=O)C(C)(OC(=O)c3cnc4ccccc4n3)C(=O)C2=CN1CCCCO (configuration not stated) | inconclusive: 84.1% |
| CC(C(=O)N1CCN(Cc2ccc3c(c2)OCO3)CC1)c1ccc([N+](=O)[O-])cc1 (configuration not stated) | inconclusive: 88.6% |
| CCOC(=O)/C(C#N)=C/C1=C(N2CCOCC2)C(C)(C)OCC1 | inconclusive: 81.7% |
| O=C(CCn1c(=O)oc2ccccc21)NCCC1=CCCCC1 | inconclusive: 107% |
| O=[N+]([O-])c1cccc(-c2noc(-c3ccco3)n2)c1 | inconclusive: 111% |
| CC(=O)Nc1ccc(S(=O)(=O)Oc2ccccc2N2CCCCC2)cc1 | inconclusive: 99.7% |

| SMILES | binding response (% of control) |
| --- | --- |
| COc1ccc2oc(=O)c(/C(C)=N/NC(=O)c3ccncc3)cc2c1 | inactive: 103% |
| Cc1ccccc1Cn1cc(S(=O)(=O)CC(=O)Nc2nccs2)c2ccccc21 | inactive: 103% |
| CS(=O)(=O)N(CCc1ccccc1)CC(=O)Nc1ccc2c(c1)OCO2 | inactive: 95.3% |
| O=c1nc(SCc2c(F)cccc2Cl)nc(-c2ccc(Cl)cc2)[nH]1 | inconclusive: 116% |
| CCN(CC)S(=O)(=O)c1ccc(N2CCOCC2)c(NC(=S)NC(=O)c2ccco2)c1 | inconclusive: 90.2% |
| CCCSC(=S)c1c(C)[nH]n(-c2ccccc2)c1=O | inconclusive: 72.4% |
| COc1ccc(NC(=S)NNc2ccc(S(=O)(=O)Nc3ccccc3C(=O)O)cc2[N+](=O)[O-])cc1 | inconclusive: 84.6% |
| Cc1cc(NC(=O)CSCc2ccc([N+](=O)[O-])cc2)no1 | inconclusive: 116% |
| CN1C(=O)C(N=Nc2ccccc2C(=O)O)N(C)C1=S (configuration not stated) | inactive: 102% |
| COc1cc(OC)c2c(=O)cc(-c3cccnc3)oc2c1 | inconclusive: 116% |
| Cc1ccc(C(=O)Nc2cccc(C(F)(F)F)c2)cc1NC(=O)c1nccnc1N | inconclusive: 87.9% |
| COc1ccc(NS(=O)(=O)c2ccc(S(=O)(=O)N(C)C)cc2)cc1S(N)(=O)=O | inconclusive: 121% |
| CCN(C(=O)c1cnc(OC)cc1C(F)(F)F)c1ccc(Cl)cc1Cl | inconclusive: 329% |
| O=C(O)CC(CC(=O)Nc1ccc(F)c(Cl)c1)c1ccc(Cl)cc1Cl (configuration not stated) | inconclusive: 104% |
| O=C(/C=C/c1ccccc1)N(Cc1cccs1)C1CCS(=O)(=O)C1 (configuration not stated) | inconclusive: 96.7% |
| O=C(CC(C(=O)O)c1ccc(Cl)cc1)c1ccccc1 (configuration not stated) | inconclusive: 97.4% |
| CCN1C(=O)N[C@@H](CCc2ccccc2)[C@@H](C(=O)OC)[C@H]1C | inconclusive: 119% |
| C=CCNC(=O)COc1ccc(Oc2ccccc2)cc1 | inconclusive: 102% |
| COc1ccc(-c2csc(NC(=O)c3ccc(OCC(=O)N4CCOCC4)c(OC)c3)n2)cc1OC | inactive: 92.7% |
| CCCc1ccc(S(=O)(=O)Nc2ccc(C)c(NS(C)(=O)=O)c2)cc1 | inconclusive: 82.4% |
| FC(F)(F)c1ccc(-c2nnc(-c3ccccn3)c(-c3ccccn3)n2)nc1 | inconclusive: 82.7% |

Another view of part of the listing above.
SMILES | binding response (% of control)
CCOP(=O)(Cc1ccc(C(C)(C)CC(C)=O)o1)OCC | inconclusive: 111%
Cc1c(C#N)c(NC(=O)CCl)n(Cc2cccs2)c1C | inconclusive: 105%
O=C(Nc1ccc2c(c1)CCC2)c1cc(=O)[nH]c2ccccc12 | inconclusive: 51.4%
O=C(O)C1=C[C@H](c2ccc(F)cc2)C[C@H](OCc2ccc(CO)cc2)O1 | inconclusive: 111%
O=S(=O)(NCc1ccccc1)c1cccc2nsnc12 | inconclusive: 98.4%
CCOc1ccc(N2CC(C(=O)Nc3c(C)n(C)n(-c4ccccc4)c3=O)CC2=O)cc1 (configuration not stated) | inactive: 102%
CCOc1ccc(C(=O)N(c2ccccn2)C2CCCCC2)cc1 | inconclusive: 113%
Cc1cc(/C=C(\C#N)C(=O)O)c(C)n1CCC(C)C | inconclusive: 107%
O=C(CSc1nc(-c2ccc(F)cc2)cs1)NCCN1C(=O)CSC1=O | inconclusive: 92.2%
O=C(CNCc1cccc2ccccc12)Nc1ccccc1[N+](=O)[O-] | inconclusive: 101%
O=C(CN1C(=O)S/C(=C\C=C\c2ccccc2)C1=O)N1CCOCC1 | inconclusive: 107%
N#C/C(=C(/O)c1ccc([N+](=O)[O-])s1)c1nc2ccccc2[nH]1 | inconclusive: 211%
CCn1c2ccccc2c2cc(NC(=O)CNC)ccc21 | inconclusive: 95.7%
COC/C=C/C1=CC2=CC(=O)C(C)(OC(=O)c3cnc4ccccc4n3)C(=O)C2=CN1CCCCO (configuration not stated) | inconclusive: 84.1%
O=C(CCn1c(=O)oc2ccccc21)NCCC1=CCCCC1 | inconclusive: 107%
O=c1nc(SCc2c(F)cccc2Cl)nc(-c2ccc(Cl)cc2)[nH]1 | inconclusive: 116%
